Data: the supplement of paper PMC8732350
“And” between values parts separate entries of the source, which are not always exact repeats. Equal entries are not always repeated. Structures can show the parent of a compound that is named as a salt. ± gives the standard deviation of the averaged measurements. Some of the results follow. Most values lie within the scatter of the assay; repeated measurements hardly agree.

Tested on: A549
Assay: surface PD-L1 immunofluorescence intensity relative to IFN-gamma-only control (ratio); higher = more PD-L1 expression
Settings: 10 µM; exposure time 24 h; IFN-gamma 100 ng/mL

Structure (SMILES)	surface PD-L1 immunofluorescence intensity
Clc1cccc(Nc2nnc(-c3ccccc3)c3ccccc23)c1	1
NC(=O)N1c2ccccc2CC(=O)c2ccccc21 [Oxcarbazepine]	0.966
Oc1nc(-c2ccc(C(F)(F)F)cc2)nc2c1CSCC2	1.02 and 0.897
O=S(=O)(c1cccc2c(Cl)cccc12)N1CCCNCC1 [ML 9 hydrochloride]	0.98
CC1(C)CC(=O)C(C2C3=C(CC(C)(C)CC3=O)Oc3ccccc32)C(=O)C1 (stereo unspecified)	1.02
CN1CC(=O)N=C1NC(=O)Nc1cccc(Cl)c1 [Fenobam]	0.902
CCOCCn1c(N2CCCN(C)CC2)nc2ccccc21 [Emedastine]	1.13
CC[C@H](C)C(=O)O[C@H]1C[C@H](O)C=C2C=C[C@H](C)[C@H](CC[C@@H](O)C[C@@H](O)CC(=O)O)[C@H]21 [Pravastatin sodium]	0.949
CC[C@H](C)C(=O)O[C@H]1C[C@H](O)C=C2C=C[C@H](C)[C@H](CC[C@@H](O)C[C@@H](O)CC(=O)O)[C@H]21 [Pravastatin]	1.12
CC[C@H](C)C(=O)O[C@H]1C[C@H](O)C=C2C=C[C@H](C)[C@H](CC[C@@H](O)C[C@@H](O)CC(=O)O)[C@H]21 [Pravastatin sodium salt]	0.95
Cc1cccn2c(=O)c(-c3nnn[nH]3)cnc12 [Pemirolast potassium]	0.801
CCCc1c(OCCCOc2ccc(OCC(=O)O)cc2)ccc(C(C)=O)c1O	0.916
O=C1CC2(CCCC2)CC(=O)N1CCCCNCC1COc2ccccc2O1 (stereo unspecified)	1.01
CC1=C(C(=O)O)N2C(=O)[C@@H](NC(=O)[C@H](N)c3ccccc3)[C@H]2SC1 [Cephalexin (Cefalexin)]	1.11
CC(C)(C)NCC(O)COc1cccc2c1CC(O)C(O)C2 (stereo unspecified) [Nadolol]	1.09
Cc1cccc(C)c1NC(=O)C[N+](C)(C)C	1.1
O=C(OCCN1CCCCC1)c1c[nH]c2ccccc12	0.969
C[C@H](CCC(=O)NCCS(=O)(=O)O)[C@H]1CC[C@H]2[C@@H]3[C@H](O)C[C@@H]4C[C@H](O)CC[C@]4(C)[C@H]3C[C@H](O)[C@]12C [Taurocholic acid]	1.06
CC(C)(C)OC(=O)Nc1ccc(-c2cc(C(=O)NCCCCCCC(=O)NO)no2)cc1	0.989
Nc1nc(Nc2ccccc2)nc2c1ncn2[C@@H]1O[C@H](CO)[C@@H](O)[C@H]1O	1.06
Cc1nc(C)c(C)nc1C [Tetramethylpyrazine]	0.96

Structure (SMILES)	surface PD-L1 immunofluorescence intensity
COc1cc2c(cc1Cc1cccc(Cl)c1F)c(=O)c(C(=O)O)cn2[C@H](CO)C(C)C [Elvitegravir (GS-9137)]	1.19
COc1ccc2cc3[n+](cc2c1OC)CCc1cc2c(cc1-3)OCO2 [Berberine HCl]	1.02
Nc1ncnc2c1ncn2[C@@H]1O[C@H](CO)C[C@H]1O [Cordycepin]	0.963
Cn1sc(=O)n(Cc2ccccc2)c1=O	1.04
Cc1nccn1CC1CCc2c(c3ccccc3n2C)C1=O (stereo unspecified) [Ondansetron Hydrochloride]	1.05
O=C1C(O)=C(O)C(=O)C(O)=C1O [Tetrahydroxy-1,4-quinone monohydrate]	1.01
CC(=O)NC[C@H]1CN(c2ccc(N3CCOCC3)c(F)c2)C(=O)O1 [Linezolid]	1.01
COc1ccc2c(c1)c(CC(=O)OCC(=O)O)c(C)n2C(=O)c1ccc(Cl)cc1 [Acemetacin]	1.01
Cc1cccc(C)c1NC(=O)CN1CCN(CCCC(c2ccc(F)cc2)c2ccc(F)cc2)CC1 [Lidoflazine]	0.951
CC(=O)O[C@]1(C(C)=O)CC[C@H]2[C@@H]3C=C(C)C4=CC(=O)CC[C@]4(C)[C@H]3CC[C@@]21C [Megestrol acetate]	0.995
CC(=O)O[C@]1(C(C)=O)CC[C@H]2[C@@H]3C=C(C)C4=CC(=O)CC[C@]4(C)[C@H]3CC[C@@]21C [Megestrol Acetate]	0.97
Nc1nnc(-c2cccc(Cl)c2Cl)c(N)n1 [Lamotrigine]	1.04
NC(C(=O)O)c1ccc(C(=O)O)c(C(=O)O)c1 (racemic)	0.972
Nc1nc(=O)[nH]cc1F [Flucytosine]	0.983
CCN1CCN(c2ccc(Nc3cc(N(C)C(=O)Nc4c(Cl)c(OC)cc(OC)c4Cl)ncn3)cc2)CC1	1.08
Oc1cc(O)cc(/C=C/c2ccc(O)c(O)c2)c1 [Piceatannol]	0.972 ± 0.053
O=C1c2ccccc2CCC1CNCCc1ccc(O)cc1 (stereo unspecified) [HEAT hydrochloride]	0.985
COc1cc2ncnc(Nc3ccc(O)c(Br)c3)c2cc1OC	0.933 ± 0.024
O=C(c1ccc(Cl)cc1Cl)n1nnc2ccccc21	0.994
CCCC(=O)Nc1cccc(NC(=O)c2ccccc2Br)c1	0.954

Three entries drawn at random from the list so far:
Structure (SMILES)	surface PD-L1 immunofluorescence intensity
NC(C(=O)O)c1ccc(C(=O)O)c(C(=O)O)c1 (racemic)	0.972
O=C1C(O)=C(O)C(=O)C(O)=C1O [Tetrahydroxy-1,4-quinone monohydrate]	1.01
CC(=O)NC[C@H]1CN(c2ccc(N3CCOCC3)c(F)c2)C(=O)O1 [Linezolid]	1.01
